In assay [1] the target is T1, GFP-AH-BAR (ARFIP2 AH-BAR domain, 109-341) (UniProt P53365).
T1 sequence: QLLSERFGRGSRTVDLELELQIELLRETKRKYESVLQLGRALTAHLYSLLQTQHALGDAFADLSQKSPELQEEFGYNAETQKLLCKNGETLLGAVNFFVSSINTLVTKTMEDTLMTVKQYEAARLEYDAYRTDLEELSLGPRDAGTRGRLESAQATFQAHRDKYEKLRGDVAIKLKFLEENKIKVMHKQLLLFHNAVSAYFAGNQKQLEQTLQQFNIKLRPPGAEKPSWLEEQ
Description: co-IP.

Chains of the proteins cited; added tags and fusions are not shown.
UniProt Q9BTU6: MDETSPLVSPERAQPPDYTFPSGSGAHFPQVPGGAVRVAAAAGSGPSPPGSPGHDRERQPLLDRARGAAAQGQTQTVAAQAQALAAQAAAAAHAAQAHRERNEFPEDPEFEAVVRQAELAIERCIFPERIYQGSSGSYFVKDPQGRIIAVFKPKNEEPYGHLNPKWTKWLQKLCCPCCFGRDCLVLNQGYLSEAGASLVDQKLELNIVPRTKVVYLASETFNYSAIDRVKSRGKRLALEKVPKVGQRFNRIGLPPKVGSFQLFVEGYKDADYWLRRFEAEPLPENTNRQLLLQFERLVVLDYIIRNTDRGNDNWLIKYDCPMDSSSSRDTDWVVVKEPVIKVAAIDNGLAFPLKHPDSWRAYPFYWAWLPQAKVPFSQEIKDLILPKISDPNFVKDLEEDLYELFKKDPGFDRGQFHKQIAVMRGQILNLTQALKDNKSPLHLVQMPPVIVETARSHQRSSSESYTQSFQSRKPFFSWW

The target in assay [2] is T2, GFP-ARFIP Chimera (N-terminal portion of ARFIP2 (1-92) fused with the AH-BAR domain of ARFIP1 (94-341)) (UniProt P53365).
T2 sequence: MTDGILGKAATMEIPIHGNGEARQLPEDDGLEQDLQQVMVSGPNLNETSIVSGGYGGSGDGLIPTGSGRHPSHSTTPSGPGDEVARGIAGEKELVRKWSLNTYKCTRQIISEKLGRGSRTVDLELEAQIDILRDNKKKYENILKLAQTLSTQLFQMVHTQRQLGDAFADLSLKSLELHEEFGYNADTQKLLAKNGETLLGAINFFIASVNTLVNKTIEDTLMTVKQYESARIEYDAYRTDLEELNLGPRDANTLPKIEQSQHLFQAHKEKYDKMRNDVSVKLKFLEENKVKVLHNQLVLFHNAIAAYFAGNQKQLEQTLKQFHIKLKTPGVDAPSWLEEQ
As to the kind of experiment: co-IP.

Assay [3] has as its target T3, GFP-ARFIP2 (ADP ribosylation factor interacting protein 2, full-length) (UniProt P53365).
T3 sequence: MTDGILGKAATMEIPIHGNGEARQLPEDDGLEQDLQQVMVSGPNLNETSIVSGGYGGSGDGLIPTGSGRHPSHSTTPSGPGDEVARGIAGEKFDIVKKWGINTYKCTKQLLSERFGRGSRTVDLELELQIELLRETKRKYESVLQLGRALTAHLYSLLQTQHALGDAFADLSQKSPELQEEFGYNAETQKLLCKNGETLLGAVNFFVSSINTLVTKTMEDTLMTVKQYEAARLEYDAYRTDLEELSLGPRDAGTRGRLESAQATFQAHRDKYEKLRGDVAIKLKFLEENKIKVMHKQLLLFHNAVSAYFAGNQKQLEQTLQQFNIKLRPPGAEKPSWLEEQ
As to the kind of experiment: co-IP.

For assay [4], the target named is T4, Flag-ORP9 (of the Flag-ORP9/11 heterodimer) (UniProt Q96SU4).
T4 sequence: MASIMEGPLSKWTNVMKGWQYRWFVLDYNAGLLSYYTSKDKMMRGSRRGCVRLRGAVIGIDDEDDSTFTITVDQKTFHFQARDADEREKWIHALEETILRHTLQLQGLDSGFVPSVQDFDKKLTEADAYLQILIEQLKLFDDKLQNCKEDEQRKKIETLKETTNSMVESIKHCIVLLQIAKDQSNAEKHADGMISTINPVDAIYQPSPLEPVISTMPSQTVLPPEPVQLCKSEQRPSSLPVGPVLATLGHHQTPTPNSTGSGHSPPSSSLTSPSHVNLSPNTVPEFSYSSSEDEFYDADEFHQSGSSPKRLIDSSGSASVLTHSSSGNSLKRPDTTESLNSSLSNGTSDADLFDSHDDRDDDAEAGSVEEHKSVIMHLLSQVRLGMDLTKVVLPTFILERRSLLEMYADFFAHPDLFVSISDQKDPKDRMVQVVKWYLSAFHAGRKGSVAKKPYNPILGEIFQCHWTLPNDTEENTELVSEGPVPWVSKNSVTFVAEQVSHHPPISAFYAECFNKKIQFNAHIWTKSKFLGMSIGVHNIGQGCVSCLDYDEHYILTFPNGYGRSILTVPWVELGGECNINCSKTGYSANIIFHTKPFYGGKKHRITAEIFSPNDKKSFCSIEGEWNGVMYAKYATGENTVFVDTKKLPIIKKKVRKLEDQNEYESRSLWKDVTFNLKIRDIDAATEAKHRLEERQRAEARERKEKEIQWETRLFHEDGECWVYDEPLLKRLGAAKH
Description: affinity co-purification.

Results are given in words; binding and its absence hold for the method and conditions named. For some of these results: In cells and extracts the contact can be indirect. Some results given as binding are weak or reduced against the parent protein; the word gives no strength. Tags and fused reporters may be left off the sequences shown.

For the molecule “phosphatidylinositol 4-kinase type 2a (PI4K2A) (from UniProt Q9BTU6 1-479) (enzyme)”, the binding result in assay [1] is reported as “no binding”; in assay [2], “binds”; in assay [3], “binds”.

B1: ORP11 (of the Flag-ORP9/11 heterodimer) (protein, UniProt Q9BXB4 1-747)
chain: MQGGEPVSTMKVSESEGKLEGQATAVTPNKNSSCGGGISSSSSSRGGSAKGWQYSDHMENVYGYLMKYTNLVTGWQYRFFVLNNEAGLLEYFVNEQSRNQKPRGTLQLAGAVISPSDEDSHTFTVNAASGEQYKLRATDAKERQHWVSRLQICTQHHTEAIGKNNPPLKSRSFSLASSSNSPISQRRPSQNAISFFNVGHSKLQSLSKRTNLPPDHLVEVREMMSHAEGQQRDLIRRIECLPTSGHLSSLDQDLLMLKATSMATMNCLNDCFHILQLQHASHQKGSLPSGTTIEWLEPKISLSNHYKNGADQPFATDQSKPVAVPEEQPVAESGLLAREPEEINADDEIEDTCDHKEDDLGAVEEQRSVILHLLSQLKLGMDLTRVVLPTFILEKRSLLEMYADFMSHPDLFIAITNGATAEDRMIRFVEYYLTSFHEGRKGAIAKKPYNPIIGETFHCSWKMPKSEVASSVFSSSSTQGVTNHAPLSGESLTQVGSDCYTVRFVAEQVSHHPPVSGFYAECTERKMCVNAHVWTKSKFLGMSIGVTMVGEGILSLLEHGEEYTFSLPCAYARSILTVPWVELGGKVSVNCAKTGYSASITFHTKPFYGGKLHRVTAEVKHNITNTVVCRVQGEWNSVLEFTYSNGETKYVDLTKLAVTKKRVRPLEKQDPFESRRLWKNVTDSLRESEIDKATEHKHTLEERQRTEERHRTETGTPWKTKYFIKEGDGWVYHKPLWKIIPTTQPAE
B1: in assay [4], the binding result is listed as “binds”.

B2: ORP9 (oxysterol-binding protein-related protein 9) (protein, UniProt Q96SU4 1-736)
chain: MASIMEGPLSKWTNVMKGWQYRWFVLDYNAGLLSYYTSKDKMMRGSRRGCVRLRGAVIGIDDEDDSTFTITVDQKTFHFQARDADEREKWIHALEETILRHTLQLQGLDSGFVPSVQDFDKKLTEADAYLQILIEQLKLFDDKLQNCKEDEQRKKIETLKETTNSMVESIKHCIVLLQIAKDQSNAEKHADGMISTINPVDAIYQPSPLEPVISTMPSQTVLPPEPVQLCKSEQRPSSLPVGPVLATLGHHQTPTPNSTGSGHSPPSSSLTSPSHVNLSPNTVPEFSYSSSEDEFYDADEFHQSGSSPKRLIDSSGSASVLTHSSSGNSLKRPDTTESLNSSLSNGTSDADLFDSHDDRDDDAEAGSVEEHKSVIMHLLSQVRLGMDLTKVVLPTFILERRSLLEMYADFFAHPDLFVSISDQKDPKDRMVQVVKWYLSAFHAGRKGSVAKKPYNPILGEIFQCHWTLPNDTEENTELVSEGPVPWVSKNSVTFVAEQVSHHPPISAFYAECFNKKIQFNAHIWTKSKFLGMSIGVHNIGQGCVSCLDYDEHYILTFPNGYGRSILTVPWVELGGECNINCSKTGYSANIIFHTKPFYGGKKHRITAEIFSPNDKKSFCSIEGEWNGVMYAKYATGENTVFVDTKKLPIIKKKVRKLEDQNEYESRSLWKDVTFNLKIRDIDAATEAKHRLEERQRAEARERKEKEIQWETRLFHEDGECWVYDEPLLKRLGAAKH
On to B2, for which the binding result in assay [1] is listed as “no binding”; in assay [2] it was “binds”; in assay [3], “binds”.

These data come from doi:10.1101/2024.07.23.604321.
